PubChem BioAssay AID1508588 | Peter MacCallum Cancer Centre, 2020
Shown is a random part of about 18,000 reagents tested. 790 of all reagents (4.4%) count as active. 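Calls rest on a combination of fold-change classes in drug and vehicle arms, not all shown here.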

Test: 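Genome-wide search for knock-downs that heighten vemurafenib action in melanoma cells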 (primary screen)
Cells: human WM266.4 melanoma cells (BRAF V600 mutant)
Reagents: siRNA pool against human genes, 40 nM
Time to read-out: 96 h from transfection to read-out
Conditions: vemurafenib 300 nM (about IC25), added 48 h after transfection, for 48 h; comparison arm got DMSO vehicle only
Measured: 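Cell gain (DAPI nuclei at end minus before drug, mean of two replicates) and medium lactate by absorbance per cell, both as ratio to non-targeting siRNA, also grouped into fold-change classes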
Direction: cell gain with vemurafenib: higher = more cell gain than with non-targeting siRNA; lactate per cell with vemurafenib: higher = more lactate made per cell
Active means: 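a knock-down counts as enhancing when its fold-change classes with vehicle and with vemurafenib, taken together, show a stronger drug effect on cell gain or lactate per cell; exact class pairs not stated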
Meaning of the calls: active = enhances vemurafenib effect; inactive = no enhancement seen

SPPL2C: cell gain with vemurafenib = 0.52; lactate per cell with vemurafenib = 1.34; outcome = inactive
GCNA: cell gain with vemurafenib = -0.03; lactate per cell with vemurafenib = 1.19; outcome = inactive
SLC6A4: cell gain with vemurafenib = 0.53; lactate per cell with vemurafenib = 1.27; outcome = inactive
FAM194C: cell gain with vemurafenib = 0.75; lactate per cell with vemurafenib = 0.57; outcome = inactive
DONSON: cell gain with vemurafenib = -0.03; lactate per cell with vemurafenib = 1.93; outcome = inactive
SLITRK3: cell gain with vemurafenib = 0.31; lactate per cell with vemurafenib = 0; outcome = active
PTMS: cell gain with vemurafenib = 0.49; lactate per cell with vemurafenib = 1.07; outcome = inactive
KRT4: cell gain with vemurafenib = 0.42; lactate per cell with vemurafenib = 0.81; outcome = inactive
ZNF420: cell gain with vemurafenib = 0.53; lactate per cell with vemurafenib = 0.86; outcome = inactive
KLK10: cell gain with vemurafenib = 0.71; lactate per cell with vemurafenib = 1.15; outcome = inactive
TNFSF8: cell gain with vemurafenib = 0.31; lactate per cell with vemurafenib = 1.31; outcome = inactive
PCBD1: cell gain with vemurafenib = -0.04; lactate per cell with vemurafenib = 2.96; outcome = inactive
LILRA4: cell gain with vemurafenib = 0.81; lactate per cell with vemurafenib = 0.66; outcome = inactive
SENP7: cell gain with vemurafenib = 0.35; lactate per cell with vemurafenib = 0.61; outcome = inactive
CMSS1: cell gain with vemurafenib = 0.66; lactate per cell with vemurafenib = 0.7; outcome = inactive
KCNMA1: cell gain with vemurafenib = 0.44; lactate per cell with vemurafenib = 0.4; outcome = inactive

Just “cell gain with vemurafenib” (2 entries from above):
SLITRK3	0.31
PTMS	0.49
